PubChem BioAssay (NCATS)
Inconclusive results, whose numbers are uncertain, are shown with a selection of clear calls. Where the call is inconclusive, the potency comes from a doubtful curve fit. Active and inactive are the calls of the source. Calls follow the shape of the dose curve; as a rule, active = well fitted cell-killing curve with a large enough effect; inconclusive = small, poorly fitted or top-dose-only effect, or effect the other way; inactive = no such curve, though single readings can be large or run the other way.

Test: Quantitative High-Throughput drug screen in 47 multiple myeloma cell lines against the NCATS MIPE library collection: Delta47_JCRB cell viability assay (AID 1918925; also: nearly all actives have a fitted effect of over 45% in size)
Conditions: Delta47 myeloma viability, CellTiter-Glo ATP, 48 h; viability (% of DMSO): at 45.8 µM (top of the series)
Description: PI: Beverly A. Mock Ph.D.
Laboratory of Cancer Biology and Genetics,
Center for Cancer Research, National Cancer Institute,
National Institute of Health, Bethesda, Maryland
Drug resistance and disease progression are common in multiple myeloma (MM) patients, underscoring the need for new therapeutic combinations. […] We hypothesized that effective combinations would reduce MYC expression and enhance p16 activity. […] These preclinical data identify potentially useful drug combinations for evaluation in drug-resistant MM and reveal potential mechanisms of combined drug sensitivity.
Described herein is the primary MIPE qHTS used to cherrypick compounds. Validated compounds were then further tested for potential synergistic activiy.
[1] Peat TJ, Gaikwad SM, Dubois W, Gyabaah-Kessie N, Zhang S, Gorjifard S, Phyo Z, Andres M, Hughitt VK, Simpson RM, Miller MA, Girvin AT, Taylor A, Williams D, D'Antonio N, Zhang Y, Rajagopalan A, Flietner E, Wilson K, Zhang X, Shinn P, Klumpp-Thomas C, McKnight C, Itkin Z, Chen L, Kazandijian D, Zhang J, Michalowski AM, Simmons JK, Keats J, Thomas CJ, Mock BA. Drug combinations identified by high-throughput screening promote cell cycle transition and upregulate Smad pathways in myeloma. Cancer Lett. 2023 Aug 1;568:216284. doi: 10.1016/j.canlet.2023.216284. Epub 2023 Jun 24. PMID: 37356470; PMCID: PMC10408729.
SEQUENCE No. (e.g., 1, 2, 3, etc.); […] (e.g., Cells, Incubation, Reagent, etc.); VALUE and DESCRIPTION.
1; Cells; 5 uL; white, solid bottom 1536-well Greiner assay plate.
2; Compounds; 23 nL; Kalypsis pin tool (Wako USA) equipped with a 1536-well pin head to transfer to the assay plates.
3; Incubation; 48 hours; 37C incubation.
4; Reagent;5uL; CellTiter Glo (Promega).
5; Detector; 425V; Luminescence; Viewlux PerkinElmer.
NOTES (numbers refer to Sequence numbers above)
1. The cell-based screening methods employed in this study were like those previously published. Briefly, the corresponding myeloma cell lines were screened in 1,536-well plates with 500 cells, 5-uL per well for inhibition of cell viability (assessed by measuring ATP levels with CellTiterGlo).
2. NCATS MIPE 4.0 library of approved and investigational drugs were added using the Kalypsis pin tool. Wells treated with DMSO only for 100% viability and media only wells for 0% viability were used as controls.
3. The assay plates were covered and incubated for 48 hours in a 37C, 5% CO2 incubator with controlled humidity.
4. After 48 hours, CellTilter-GloTM luminescent substrate mix (Promega) reagent was added to the assay plate and plates we incubated for 5 min at room temperature.
5. Signal was measured as median relative luminescence units on a ViewLux (PerkinElmer) multiplate reader.
[1] Heske CM, Davis MI, Baumgart JT, Wilson K, Gormally MV, Chen L, Zhang X, Ceribelli M, Duveau DY, Guha R, Ferrer M, Arnaldez FI, Ji J, Tran HL, Zhang Y, Mendoza A, Helman LJ, Thomas CJ. Matrix Screen Identifies Synergistic Combination of PARP Inhibitors and Nicotinamide Phosphoribosyltransferase (NAMPT) Inhibitors in Ewing Sarcoma. Clin Cancer Res. 2017 Dec 1;23(23):7301-7311. doi: 10.1158/1078-0432.CCR-17-1121. Epub 2017 Sep 12. PMID: 28899971; PMCID: PMC6636827.
Potency is read from the fitted curve at half-maximal effect.

| Structure (SMILES) | Potency | viability (% of DMSO) |
| --- | --- | --- |
| CC(=O)Oc1ccccc1C(=O)O | inconclusive: 2350 nM [cytotoxic, full curve, poor fit] |  |
| Cn1ccc2cc3c(cc21)CCN3C(=O)Nc1cccnc1 | inconclusive: 26400 nM [cytotoxic, single point] |  |
| Cc1cc(C=c2sc3nc4ccccc4n3c2=O)c(C)n1-c1ccccc1 | inconclusive: 14.8 nM [cytotoxic, full curve, poor fit] |  |
| Nc1nc(F)nc2c1ncn2[C@@H]1O[C@H](COP(=O)(O)O)[C@@H](O)[C@H]1O | inconclusive: 16600 nM [cytotoxic, partial curve, poor fit] |  |
| CC(=O)N(C)C1(c2ccccc2)CCN(CCC[C@]2(c3ccc(Cl)c(Cl)c3)CCCN(C(=O)c3ccccc3)C2)CC1 | active: 10500 nM |  |
| O=c1cc(N2CCOCC2)oc2c(-c3ccccc3)cccc12 | active: 1480 nM |  |
| CCC(=C(CC)c1ccc(O)cc1)c1ccc(O)cc1 | inconclusive: 16600 nM [cytotoxic, partial curve] |  |
| COc1ccc([C@@H]2CC(=O)c3c(O)cc(O[C@@H]4O[C@H](CO[C@@H]5O[C@@H](C)[C@H](O)[C@@H](O)[C@@H]5O)[C@@H](O)[C@H](O)[C@@H]4O)cc3O2)cc1O | inconclusive: 26400 nM [cytotoxic, single point] |  |
| O=C(O)c1cc(=O)c2c(OCC(O)COc3cccc4oc(C(=O)O)cc(=O)c34)cccc2o1 | inconclusive: 37.2 nM [rising, full curve] |  |
| O=C(O)c1cccnc1Nc1cccc(C(F)(F)F)c1 |  | inactive: 97.6% |
| COc1ccc(C2Sc3ccccc3N(CCN(C)C)C(=O)C2OC(C)=O)cc1 (stereo not given) |  | inactive: 126% |
| O=C(O)[C@@H](c1ccc(OCc2ccc3ccccc3n2)cc1)C1CCCC1 | inconclusive: 1 nM |  |
| O=C1c2c(O)cc(O)cc2O[C@H](c2cc(O)c(O)c(O)c2)[C@H]1O |  | inactive: 109% |
| O=c1c2ccccc2nc2n1CCc1c-2[nH]c2ccccc12 | inconclusive: 37200 nM [cytotoxic, single point] |  |
| COc1ccc2c3c1OC1C[C@@H](O)C=C[C@@]31CCN(C)C2 (stereo not given in full) | inconclusive: 5260 nM [cytotoxic, full curve] |  |
| COc1ccc(C=CC(=O)Nc2ccccc2C(=O)O)cc1OC | inconclusive: 10.5 nM [cytotoxic, full curve, poor fit] |  |
| CNC1CCCN(c2c(F)cc3c(=O)c(C(=O)O)cn(C4CC4)c3c2OC)C1 (stereo not given) | inconclusive: 9350 nM [cytotoxic, partial curve, poor fit] |  |
| CC(=Cc1ccccc1)C=C1SC(=S)N(CC(=O)O)C1=O |  | inactive: 133% |
| CCCCC(CC)COC(=O)C(C#N)=C(c1ccccc1)c1ccccc1 (stereo not given) | inconclusive: 9.3 nM [rising, full curve] |  |
| O=S(=O)(O)CCSSCCS(=O)(=O)O |  | inactive: 130% |

Among those listed so far, 2 have four or more nitrogen atoms.

| Structure (SMILES) | Potency | viability (% of DMSO) |
| --- | --- | --- |
| Cn1ccc2cc3c(cc21)CCN3C(=O)Nc1cccnc1 | inconclusive: 26400 nM [cytotoxic, single point] |  |
| Nc1nc(F)nc2c1ncn2[C@@H]1O[C@H](COP(=O)(O)O)[C@@H](O)[C@H]1O | inconclusive: 16600 nM [cytotoxic, partial curve, poor fit] |  |

The results go on.

| Structure (SMILES) | Potency | viability (% of DMSO) |
| --- | --- | --- |
| O=C(O)c1cc(O)c2c(c1)C(=O)c1cccc(O)c1C2=O | inconclusive: 7.6 nM [cytotoxic, full curve, poor fit] |  |
| CC1=C(C)C(=O)C(C(CCCCCC(=O)O)c2ccccc2)=C(C)C1=O (stereo not given) | inconclusive: 148 nM [rising, full curve] |  |
| CCCCCCCCOc1ccccc1C(=O)Nc1ccc(C(=O)OCC[N+](C)(CC)CC)cc1 | active: 18700 nM |  |
| CC(C)CNc1ccnc(NCc2csc(-c3ccccc3)n2)n1 | active: 2350 nM |  |
| CN1CCC(=C2c3ccccc3CCc3sccc32)CC1 | inconclusive: 37200 nM [cytotoxic, single point] |  |
| NC1CCC(Nc2nc(Nc3ccc(C(=O)N4CCCCC4)cc3)c3ncn(-c4cccc(F)c4)c3n2)CC1 (stereo not given) | inconclusive: 4.2 nM [rising, full curve, poor fit] |  |
| O=C1CCCC2=C1C(c1[nH]ncc1Cl)N=C(Nc1nc3ccccc3o1)N2 (stereo not given) | inconclusive: 23500 nM [cytotoxic, single point] |  |
| c1ccc2c(Cc3c[nH]c4ccccc34)c[nH]c2c1 | active: 935 nM |  |
| O=C(NNC(=O)c1ccc(CNS(=O)(=O)c2ccc(F)c(Cl)c2)cc1)c1ccccc1 | inconclusive: 3.7 nM [rising, full curve, poor fit] |  |
| C[C@H](NC(=O)[C@@H](O)c1cc(F)cc(F)c1)C(=O)N[C@@H]1C(=O)N(C)c2ccccc2-c2ccccc21 | inconclusive: 209 nM [cytotoxic, full curve, poor fit] |  |
| C[C@](N)(Cc1ccc(O)c(O)c1)C(=O)O | inconclusive: 18700 nM [cytotoxic, partial curve] |  |
| Clc1ccc(C(Cn2ccnc2)OCc2ccc(Sc3ccccc3)cc2)c(Cl)c1 (stereo not given) | inconclusive: 20900 nM [cytotoxic, partial curve] |  |
| NNc1nncc2ccccc12 | inconclusive: 6.6 nM [rising, full curve, poor fit] |  |
| CC(C)C(=O)Nc1ccc([N+](=O)[O-])c(C(F)(F)F)c1 | active: 3320 nM |  |
| CC(C)(C(=O)NCC(F)(F)C(F)(F)F)C(=O)N[C@@H]1C(=O)Nc2ccccc2-c2ccccc21 | active: 20900 nM |  |
| CC[C@]1(O)C[C@@H]2CN(CCc3c([nH]c4ccccc34)[C@@](C(=O)OC)(c3cc4c(cc3OC)N(C=O)[C@@H]3C45CCN4CC=C[C@](CC)([C@H]45)[C@@H](OC(C)=O)[C@]3(O)C(=O)OC)C2)C1 (stereo not given in full) | inconclusive: 18700 nM [cytotoxic, partial curve, poor fit] |  |
| CC(C)(C)COc1ccc(-n2cc(C(=O)O)cn2)cc1C#N |  | inactive: 113% |
| C=CC(=O)Nc1cccc(Sc2nc(Nc3ccc(N4CCN(C)CC4)cc3)ncc2Cl)c1 | inconclusive: 1870 nM [cytotoxic, full curve, poor fit] |  |
| COc1ncc(-c2ccc3nccc(-c4ccnnc4)c3c2)cc1NS(=O)(=O)c1ccc(F)cc1F | inconclusive: 3 nM [cytotoxic, partial curve, poor fit] |  |
| Cc1cc(O)c2c(c1)C(=O)c1cc(O)cc(O)c1C2=O |  | inactive: 140% |
